“And” between values parts separate entries of the source, which are not always exact repeats. Equal entries are not always repeated.
Experiment: Fate of 14C-Benzo(a)pyrene during Fenton's reagent treatment in Quakertown silt loam
Conditions: [H2O2:FeSO4] = [2.0 g:0.2 g]

SMILES: c1ccc2c(c1)cc1ccc3cccc4ccc2c1c34 [Benzo(a)pyrene, benzo(a)pyrene]
- % recovered, Nonextractable (calculated): 33.6% and 30.3%
- % recovered, Mineralization to CO2 (14C-labeled): 18.3%
- % recovered, parent compound (Determined by GC/FID): 3.3%
- % recovered, Intermediates Water soluble (aqueous phase): 16.8%
- % recovered, Intermediates CH2Cl2 extractable (soil extract): 31.3%
